For 1 molecule, binding results are on record in PMC3576375.

In the assay the target is GST-CT082_(Δ330–450) (Chlamydia trachomatis L2/434). Nature of the assay: far-Western, overlay or dot blot; extracts of E. coli expressing GST fusions resolved by SDS-PAGE and blotted on nitrocellulose; membrane probed with 1.2 µg purified (6x)His-CT584 in 20 mM HEPES pH 7.5, 50 mM KCl, 10 mM MgCl2, 1 mM DTT, 0.1% Nonidet P-40, 16 h at 4°C; detection with anti-His; only the binder purified.

These are yes or no findings as the source states them, for the method shown. Sequences can lack the tags named with a protein.

B1: (6x)His-CT584 (protein, UniProt O84588 1-183)
chain: MTTKPKTLEIDNNTFLLLEGNLKRIFATPIGYTTFREFQNVVFNCAQGQQELANFLFEMLINGKLLQELPAGQKQSAQSLIVQFMMPIRVAKDIHERGEFINFITSDMLAQQERCVFLNRLSRVDGQEFLLMTDVQNTCHLIRHLLSRLLEAQKNPIGEKNLQEIQEDLDSLRAHFEELTKSV
For B1, the binding entry was “no binding”.
